Data taken from patent US11242370B2, “Neuregulin-4 compounds and methods of use” (Eli Lilly and Company, priority 2019, dated 2022).
Not every detail of the peptide structures is certain; ends, links or a residue may be inferred. Marks after values point to notes of the source that are not given here. Bridges are numbered along the chain shown (N, C = ends). Where no end group is shown, it is not given here.

The chains behind the UniProt entries cited, without tags or fusion partners. Residues count along the entry.
UniProt Q62799, 20-1339: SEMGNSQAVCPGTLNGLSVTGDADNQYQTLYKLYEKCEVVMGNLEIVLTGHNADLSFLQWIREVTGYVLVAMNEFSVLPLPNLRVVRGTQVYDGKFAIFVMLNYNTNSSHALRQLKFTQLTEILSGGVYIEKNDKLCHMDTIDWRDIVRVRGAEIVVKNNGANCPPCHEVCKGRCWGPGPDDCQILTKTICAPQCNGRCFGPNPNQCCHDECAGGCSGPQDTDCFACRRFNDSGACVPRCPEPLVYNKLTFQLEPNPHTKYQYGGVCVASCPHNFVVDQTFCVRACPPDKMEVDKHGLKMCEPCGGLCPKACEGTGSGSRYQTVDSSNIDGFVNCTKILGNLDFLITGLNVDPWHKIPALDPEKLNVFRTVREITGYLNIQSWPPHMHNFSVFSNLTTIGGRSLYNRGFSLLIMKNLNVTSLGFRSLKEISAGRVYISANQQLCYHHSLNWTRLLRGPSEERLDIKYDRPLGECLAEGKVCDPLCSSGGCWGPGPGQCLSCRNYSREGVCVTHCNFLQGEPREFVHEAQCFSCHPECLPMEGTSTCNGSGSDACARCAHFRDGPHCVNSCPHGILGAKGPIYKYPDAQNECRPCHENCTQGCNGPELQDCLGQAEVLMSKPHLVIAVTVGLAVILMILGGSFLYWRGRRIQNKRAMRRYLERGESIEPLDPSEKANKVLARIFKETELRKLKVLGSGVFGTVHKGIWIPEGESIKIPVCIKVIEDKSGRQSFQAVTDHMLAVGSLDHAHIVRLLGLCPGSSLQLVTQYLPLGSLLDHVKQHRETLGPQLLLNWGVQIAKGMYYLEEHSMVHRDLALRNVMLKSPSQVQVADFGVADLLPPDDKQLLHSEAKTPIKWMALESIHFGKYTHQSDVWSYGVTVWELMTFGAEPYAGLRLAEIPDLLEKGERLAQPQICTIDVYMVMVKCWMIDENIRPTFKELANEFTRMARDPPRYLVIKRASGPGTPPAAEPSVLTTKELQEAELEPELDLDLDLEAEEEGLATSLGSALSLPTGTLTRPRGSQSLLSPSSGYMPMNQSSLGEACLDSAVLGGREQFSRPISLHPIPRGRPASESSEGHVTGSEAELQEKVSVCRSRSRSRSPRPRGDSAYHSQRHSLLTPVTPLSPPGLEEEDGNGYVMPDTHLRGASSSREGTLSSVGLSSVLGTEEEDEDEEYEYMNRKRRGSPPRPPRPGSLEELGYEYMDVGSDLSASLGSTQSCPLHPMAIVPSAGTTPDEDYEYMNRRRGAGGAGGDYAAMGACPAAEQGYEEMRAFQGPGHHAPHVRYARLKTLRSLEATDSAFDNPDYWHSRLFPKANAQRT
UniProt P21860, 20-1342: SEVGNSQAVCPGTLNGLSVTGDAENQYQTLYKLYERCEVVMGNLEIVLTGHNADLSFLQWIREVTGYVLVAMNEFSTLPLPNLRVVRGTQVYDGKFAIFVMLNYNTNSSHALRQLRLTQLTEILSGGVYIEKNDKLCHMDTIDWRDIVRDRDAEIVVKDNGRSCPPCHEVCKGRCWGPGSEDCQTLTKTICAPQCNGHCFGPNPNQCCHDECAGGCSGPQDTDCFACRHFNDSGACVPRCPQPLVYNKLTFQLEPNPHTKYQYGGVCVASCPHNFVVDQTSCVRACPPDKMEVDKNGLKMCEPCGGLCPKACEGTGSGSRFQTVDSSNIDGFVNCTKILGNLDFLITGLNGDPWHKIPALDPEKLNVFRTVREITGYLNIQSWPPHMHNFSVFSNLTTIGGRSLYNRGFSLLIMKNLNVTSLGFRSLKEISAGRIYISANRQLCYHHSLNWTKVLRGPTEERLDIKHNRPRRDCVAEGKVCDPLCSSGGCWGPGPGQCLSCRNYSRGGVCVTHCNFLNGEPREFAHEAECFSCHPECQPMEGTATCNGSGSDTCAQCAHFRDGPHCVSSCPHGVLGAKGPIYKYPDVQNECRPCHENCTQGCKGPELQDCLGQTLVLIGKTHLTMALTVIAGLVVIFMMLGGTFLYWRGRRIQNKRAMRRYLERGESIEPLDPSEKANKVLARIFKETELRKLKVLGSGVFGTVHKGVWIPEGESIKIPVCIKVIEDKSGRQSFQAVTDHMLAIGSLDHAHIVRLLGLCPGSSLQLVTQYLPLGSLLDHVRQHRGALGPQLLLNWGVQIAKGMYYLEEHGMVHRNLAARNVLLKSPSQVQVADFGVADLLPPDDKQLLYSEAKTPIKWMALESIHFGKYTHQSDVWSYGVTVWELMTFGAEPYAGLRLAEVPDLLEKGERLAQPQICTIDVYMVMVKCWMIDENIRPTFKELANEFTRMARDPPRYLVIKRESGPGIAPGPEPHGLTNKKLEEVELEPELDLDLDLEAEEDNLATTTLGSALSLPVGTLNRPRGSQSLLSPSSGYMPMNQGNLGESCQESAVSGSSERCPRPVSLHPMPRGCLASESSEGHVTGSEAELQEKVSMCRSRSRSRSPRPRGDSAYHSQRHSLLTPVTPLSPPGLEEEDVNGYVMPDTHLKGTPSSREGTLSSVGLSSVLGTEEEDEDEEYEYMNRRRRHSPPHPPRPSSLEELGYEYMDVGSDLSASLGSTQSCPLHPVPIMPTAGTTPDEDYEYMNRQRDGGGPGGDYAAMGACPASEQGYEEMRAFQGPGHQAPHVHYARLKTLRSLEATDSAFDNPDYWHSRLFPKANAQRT

How the values were obtained:
[1] = tested on: rat model of heart failure with reduced ejection fraction (HFrEF); experiment: Rat MI model, Example 9 infusion duration study, echocardiography; assay type: in vivo
rat HER2/HER3 = biological target: T1, rat HER2/HER3 (Rattus norvegicus, UniProt Q62799); experiment: Rat HER2/HER3 phospho-ERK 1/2 assay, purified proteins, CHO-K1 cells; assay type: cell-based; settings: phospho-ERK1/2
T1 construct: expressed in transfected cells
Method: (§1) A cell based assay utilizing CHO-K1 cells overexpressing human or rat HER receptors is used to determine activity of NRG4 compounds. CHO-K1 cells (ATCC) are grown in DMEM-F12 3:1 with 5% FBS with 20 mM HEPES, 40 μg/mL L-Proline, lx antibiotics and were split 1:5 every 2-3 days with TripLE Express (Gibco). Cells are transfected with plasmid DNA encoding HER receptors in pairs (hHER2-3, hHER2-4, rHER2-3 and rHER2-4) with Fugene 6 (Promega) according to the manufacturer's instructions. […] Transfected cells are selected with Puromycin (12 ug/ml) and Hygromycin (1 mg/ml) for 3-4 weeks and clonal lines are obtained by limited dilution cloning into 96 well plates. Clonal lines are selected by appropriate gene expression of HER2, HER3 or HER4 by Taqman method. Lines with appropriate receptor expression are confirmed by NRG1 induced phospho-ERK 1/2 responses. […]
(§2) A phospho-ERK1/2 activity assay is utilized with CHO-K1 cells overexpressing human or rat HER receptors to determine potencies and selectivity of purified NRG4 compounds. […] Then 7.5 μL donor beads are added and the plate is covered with aluminum foil and incubated at room temperature for 2 hours on plate shaker with 350 rpm agitation or at 4° C. for overnight (warm up plate at room temperature for 2 h before reading). Alpha signal data are obtained on an Envision instrument (Alpha Technology-compatible plate reader). […]

human HER2/HER3 = biological target: T2, human HER2/HER3 (Homo sapiens, UniProt P21860); experiment: Human HER2/HER3 phospho-ERK 1/2 assay, purified proteins, CHO-K1 cells; assay type: cell-based; settings: phospho-ERK1/2
T2 construct: expressed in transfected cells
Method: as §1, §2

[2] = tested on: rat model of heart failure with reduced ejection fraction (HFrEF); experiment: Rat MI model, Example 9 96-hour infusion dose study, echocardiography; assay type: in vivo
[3] = 2.18 mg/kg/day SC infusion for 48 hours, 7 days after dosing started
[4] = 2.18 mg/kg/day SC infusion for 48 hours, Baseline (before dosing)
[5] = 2.18 mg/kg/day SC infusion for 72 hours, 7 days after dosing started
[6] = 2.18 mg/kg/day SC infusion for 72 hours, Baseline (before dosing)
[7] = 2.18 mg/kg/day SC infusion for 96 hours, 7 days after dosing started
[8] = 2.18 mg/kg/day SC infusion for 96 hours, Baseline (before dosing)
[9] = 0.22 mg/kg/day SC pump 96 h, 7 days after dosing started
[10] = 0.22 mg/kg/day SC pump 96 h, Baseline (before dosing)
[11] = 0.73 mg/kg/day SC pump 96 h, 7 days after dosing started
[12] = 0.73 mg/kg/day SC pump 96 h, Baseline (before dosing)
[13] = 2.18 mg/kg/day SC pump 96 h, 7 days after dosing started
[14] = 2.18 mg/kg/day SC pump 96 h, 14 days after dosing started
[15] = 2.18 mg/kg/day SC pump 96 h, Baseline (before dosing)
[16] = 7.28 mg/kg/day SC pump 96 h, 7 days after dosing started
[17] = 7.28 mg/kg/day SC pump 96 h, 14 days after dosing started
[18] = 7.28 mg/kg/day SC pump 96 h, Baseline (before dosing)

Substance: H-GGGGSGHEEPCGPSHKSFCLNGGLCYQIPTIPSPFCRCVENYTGARCEKVFL (disulfide 11-25, 19-36, 38-47 (inferred)) [Example 9]
- Ejection Fraction [1, 3]: 42.6%
- Left Ventricle Diameter (end diastole) [1, 3]: 7.68
- Ejection Fraction [1, 4]: 40.6%
- Left Ventricle Diameter (end diastole) [1, 4]: 7.52
- Ejection Fraction [1, 5]: 44.6* %
- Left Ventricle Diameter (end diastole) [1, 5]: 7.87
- Ejection Fraction [1, 6]: 41.0%
- Left Ventricle Diameter (end diastole) [1, 6]: 7.55
- Ejection Fraction [1, 7]: 46.2* %
- Left Ventricle Diameter (end diastole) [1, 7]: 7.70
- Ejection Fraction [1, 8]: 41.8%
- Left Ventricle Diameter (end diastole) [1, 8]: 7.44
- EC50 (rat HER2/HER3): > 3 µM
- EC50 (human HER2/HER3): > 3 µM
- Ejection Fraction [2, 9]: 43.9%
- Left Ventricle Diameter (end diastole) [2, 9]: 7.53
- Ejection Fraction [2, 10]: 41.6%
- Left Ventricle Diameter (end diastole) [2, 10]: 7.51
- Ejection Fraction [2, 11]: 45.8%
- Left Ventricle Diameter (end diastole) [2, 11]: 7.83
- Ejection Fraction [2, 12]: 42.3%
- Left Ventricle Diameter (end diastole) [2, 12]: 7.55
- Ejection Fraction [2, 13]: 48.9* %
- Left Ventricle Diameter (end diastole) [2, 13]: 7.68
- Ejection Fraction [2, 14]: 45.5%
- Left Ventricle Diameter (end diastole) [2, 14]: 7.75
- Ejection Fraction [2, 15]: 41.4%
- Left Ventricle Diameter (end diastole) [2, 15]: 7.50
- Ejection Fraction [2, 16]: 49.8* %
- Left Ventricle Diameter (end diastole) [2, 16]: 7.52
- Ejection Fraction [2, 17]: 48.0* %
- Left Ventricle Diameter (end diastole) [2, 17]: 7.67
- Ejection Fraction [2, 18]: 41.1%
- Left Ventricle Diameter (end diastole) [2, 18]: 7.60
- LVEF in the rat model of HFrEF ([2]; plasma concentrations maintained at 3 to 100 nM for a duration of 72 to 96 hours): improved
